A short description of data set [1]: Energy transfer between luminol luminescence and photosensitizers.
Data set [2] deals with breast adenocarcinoma cell line MCF7. As to the kind of experiment: Sub-cellular localisation of luminol derivatives, confocal microscopy with mitotracker green FM. To be noted: MCF7 cells, 4 hours treatment, mitotracker green FM co-stain. In kind it is cell-based.
Data set [3] concerns glioblastoma cell line U87. The description is as above. In kind it is cell-based. Conditions: U87 cells, 4 hours treatment, mitotracker green FM co-stain.
[4] abbreviates: luminol in aqueous carbonate buffer (pH 10.3) with CuSO4 and urea peroxide.

Consider `O=C1OC2(c3cc(I)c(O)c(I)c3Oc3c2cc(I)c(O)c3I)c2c(Cl)c(Cl)c(Cl)c(Cl)c21` [RB, Rose Bengal], for which the “photosensitizer fluorescence excited by luminol luminescence” value (“photosensitizer fluorescence excited” for short) in data set [1] (setting [4]) was “characteristic fluorescence of RB is obvious”.
As for `O=c1[nH][nH]c(=O)c2c(NCCCCCC[P+](C3CCCCC3)(C3CCCCC3)C3CCCCC3)cccc12.[I-]` [DZ160, tricyclohexyl(6-((1,4-dioxo-1,2,3,4-tetrahydrophthalazin-5-yl)amino)hexyl)phosphonium iodide], the subcellular localisation result in data set [2] and in data set [3] was “mitochondrial localisation” in each case.
For `Nc1cccc2c(=O)[nH][nH]c(=O)c12` [luminol, reference compound], the subcellular localisation result in data set [2] and in data set [3] was “cytosolic localisation” each time.
Turning to `O.O=C([O-])c1ccccc1-c1c2cc(I)c(=O)c(I)c-2oc2c(I)c([O-])c(I)cc12.[Na+].[Na+]` [erythrosin B], in data set [1] (luminol in DMSO alkalinised by potassium tert.butoxide), the “photosensitizer fluorescence excited” value is on record as “very strong fluorescence around 580 nm”. The “luminescence around 1270 nm (singlet oxygen)” value in data set [1] (luminol in DMSO with potassium tert.butoxide, quenched by histidine) is “presence of singlet oxygen”.
For the molecule `O=S(=O)(O)c1ccc(-c2c3nc(c(-c4ccc(S(=O)(=O)O)cc4)c4ccc([nH]4)c(-c4ccc(S(=O)(=O)O)cc4)c4nc(c(-c5ccc(S(=O)(=O)O)cc5)c5ccc2[nH]5)C=C4)C=C3)cc1` [TPPS4], the “photosensitizer fluorescence excited” value in data set [1] (setting [4]) is “characteristic fluorescence of TPPS4 is not present”.
As for `O=C(CCCCC[P+](c1ccccc1)(c1ccccc1)c1ccccc1)Nc1cccc2c(=O)[nH][nH]c(=O)c12.[Br-]` [AP47, (6-((1,4-dioxo-1,2,3,4-tetrahydrophthalazin-5-yl)amino)-6-oxohexyl)triphenylphosphonium bromide], the subcellular localisation result in data set [2] and in data set [3] was “mitochondrial localisation” in each case.

The values are drawn from patent US12121581B2, “Method of photodynamic therapy” (OSLO UNIVERSITETSSYKEHUS HF, priority 2018, dated 2024).
